Results on one molecule are retold here after article PMC10804696.

Amino acid sequences for entries named in this document (tags omitted). Residues count along the entry.
UniProt P37173, residues 23-567: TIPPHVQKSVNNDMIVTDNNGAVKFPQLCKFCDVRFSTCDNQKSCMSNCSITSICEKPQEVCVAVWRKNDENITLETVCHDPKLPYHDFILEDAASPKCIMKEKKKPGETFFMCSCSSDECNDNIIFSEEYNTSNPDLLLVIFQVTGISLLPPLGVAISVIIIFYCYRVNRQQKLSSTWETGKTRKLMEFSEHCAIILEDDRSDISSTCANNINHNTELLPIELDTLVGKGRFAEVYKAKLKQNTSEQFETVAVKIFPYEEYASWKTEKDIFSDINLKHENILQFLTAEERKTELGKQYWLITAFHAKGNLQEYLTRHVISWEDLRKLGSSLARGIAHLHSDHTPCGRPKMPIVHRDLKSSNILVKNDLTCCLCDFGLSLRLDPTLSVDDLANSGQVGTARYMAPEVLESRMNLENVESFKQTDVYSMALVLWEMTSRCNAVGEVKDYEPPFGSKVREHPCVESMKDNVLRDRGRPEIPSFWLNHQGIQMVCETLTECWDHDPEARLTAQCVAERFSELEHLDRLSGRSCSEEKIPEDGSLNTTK

No constants are given. Whether binding was seen depends on the method and setting. Binding seen in cells or lysates may run through a third protein. Some results given as binding are weak or reduced against the parent protein; the word gives no strength.

This experiment deals with TGF-β receptor II (TGFBR2) (human (endogenous in NHDF)) (UniProt P37173). The experiment can be described thus: co-IP; NHDF cultured with 10% FBS DMEM, lysed in 0.1% Triton X-100, 0.1 M Tris pH 8.1 with phosphatase and protease inhibitors; 1000 μg lysate with 1 μg anti-TEM1 antibody (or normal rabbit IgG) and protein A and G agarose beads at 4 °C overnight; Western blot; reverse precipitation with a TGFBR2 antibody. For orientation: Immunoblotting shows a protein as a band on a membrane.

B1: Tumor endothelial marker 1 (TEM1) (protein, UniProt Q9HCU0-1 18-757)
chain: QDPWAAEPRAACGPSSCYALFPRRRTFLEAWRACRELGGDLATPRTPEEAQRVDSLVGAGPASRLLWIGLQRQARQCQLQRPLRGFTWTTGDQDTAFTNWAQPASGGPCPAQRCVALEASGEHRWLEGSCTLAVDGYLCQFGFEGACPALQDEAGQAGPAVYTTPFHLVSTEFEWLPFGSVAAVQCQAGRGASLLCVKQPEGGVGWSRAGPLCLGTGCSPDNGGCEHECVEEVDGHVSCRCTEGFRLAADGRSCEDPCAQAPCEQQCEPGGPQGYSCHCRLGFRPAEDDPHRCVDTDECQIAGVCQQMCVNYVGGFECYCSEGHELEADGISCSPAGAMGAQASQDLGDELLDDGEDEEDEDEAWKAFNGGWTEMPGILWMEPTQPPDFALAYRPSFPEDREPQIPYPEPTWPPPLSAPRVPYHSSVLSVTRPVVVSATHPTLPSAHQPPVIPATHPALSRDHQIPVIAANYPDLPSAYQPGILSVSHSAQPPAHQPPMISTKYPELFPAHQSPMFPDTRVAGTQTTTHLPGIPPNHAPLVTTLGAQLPPQAPDALVLRTQATQLPIIPTAQPSLTTTSRSPVSPAHQISVPAATQPAALPTLLPSQSPTNQTSPISPTHPHSKAPQIPREDGPSPKLALWLPSPAPTAAPTALGEAGLAEHSQRDDRWLLVALLVPTCVFLVVLLALGIVYCTRCGPHAPNKRITDCYRWVIHAGSKSPTEPMPPRGSLTGVQTCRTSV
Turning to B1, the binding entry is “binds”.
